# Laboratory results as given in PubChem BioAssay AID1688 (National Center for Advancing Translational Sciences (NCATS), 2009).
# Hit rate of the full screen: of about 220,000 compounds, about 2,400 (1.1%) were called active. This list was built around the results that the source calls inconclusive (neither active nor inactive); the mix of calls is not that of the screen. Calls follow the shape of the dose curve; as a rule, active = well fitted inhibition curve with a large enough effect; inconclusive = small, poorly fitted or top-dose-only effect, or effect the other way; inactive = no such curve, though single readings can be large or run the other way. Potencies of inconclusive entries are doubtful fits and often do not repeat.
# Experiment: qHTS Multiplex Assay to Identify Dual Action Probes in a Cell Model of Huntington: Aggregate Formation (GFP); also: nearly all actives have a fitted effect of over 60% in size
# Details: PC12 HttQ103-GFP aggregates, Acumen cytometry, 40 h; activity change, negative = inhibition: at 46.1 µM (top of the series) unless noted
# How it was run: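 Multiplexed with ATP-based cell death, this channel scores GFP aggregates in PC12 cells expressing inducible HTTex1-Q103-GFP. Induction used 100 nM tebufenozide; compounds were tested in concentration series.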
# % is scaled to controls: 0 for no effect and ±100 for the full control effect; potency is read from the fitted curve at half-maximal effect.
SMILES,Potency,"activity change, negative = inhibition"
Cc1cc(N2CCOCC2)ccc1/C=C1\NC(=O)N(CC(=O)Nc2ccccc2C)C1=O,"inconclusive: 10 µM [activator, partial curve]",–
COc1cc(/C=N/N2CCN(C3c4ccccc4-c4ccccc43)CC2)cc(OC)c1O,"inconclusive: 3.16 µM [activator, full curve]",–
Cc1ccc(S(=O)(=O)N(CC(=O)N/N=C/c2cccc(C)c2)c2cccc3cccnc23)cc1,"inconclusive: 35.5 µM [activator, single point]",–
O=C(OCc1ccccc1F)c1ccc2c(c1)-c1ccccc1C2=O,active: 0.794 µM,–
O=C(Nc1n[nH]c(C2CCCCC2)n1)C1CCCCC1,active: 4.47 µM,–
CC(=O)N1c2ccc3ccccc3c2C2C=CCC2C1c1ccc(Br)cc1 (centres undefined),"inconclusive: 11.2 µM [inhibitor, partial curve]",–
COc1ccc(-c2cc(-c3n[nH]c(=S)n3-c3cccc4ccccc34)[nH]n2)cc1,–,inactive: 17.3% [at 9.22 µM]
N#CCC(=O)N/N=C/c1coc2ccccc2c1=O,–,inactive: -17.9% [at 9.22 µM]
Cc1ccccc1NC(C)C(=O)N/N=C/c1ccccc1OCc1cccc(Br)c1 (centres undefined),"inconclusive: 17.8 µM [inhibitor, single point]",–
COc1cc(OC)c(NC(=O)CCc2nc(-c3cccs3)no2)cc1Cl,inactive,–
C=CCn1cc(/C=N/NC(=O)COc2cccc3cccnc23)c2ccccc21,inactive,–
CCCC1=C(C(=O)OCC)C(c2cc(Cl)cc(OC)c2OCc2ccccc2)NC(=O)N1 (centres undefined),"inconclusive: 15.8 µM [inhibitor, single point]",–
N#CCCN(Cc1ccccc1)C(=S)Nc1ccc(F)cc1,–,inactive: 0.301% [at 9.22 µM]
Cc1nonc1NC(=O)CSc1nc(C2CCCCC2)nc2ccccc12,"inconclusive: 3.55 µM [inhibitor, partial curve]",–
COc1ccc(CNC(=O)C(c2ccco2)N(C(=O)Cc2cccs2)c2cccnc2)cc1 (centres undefined),–,inactive: 1.66% [at 9.22 µM]
Cn1nc([N+](=O)[O-])nc1S(C)(=O)=O,"inconclusive: 14.1 µM [inhibitor, single point]",–
N#Cc1ccc(CSCC(=O)O)cc1,"inconclusive: 6.31 µM [activator, single point]",–
COc1cccc(Oc2cn[nH]c2-c2ccc(O)cc2O)c1,"inconclusive: 17.8 µM [inhibitor, single point]",–
COCCCNC(=O)CN(c1cc(C(F)(F)F)ccc1Cl)S(C)(=O)=O,–,inactive: 7% [at 9.22 µM]
Cc1csc(N/N=C/c2ccccn2)n1,"inconclusive: 35.5 µM [inhibitor, single point]",–
O=C(C[n+]1cc(-c2ccccc2)n2c1CCCCC2)c1ccc(Cl)cc1,"inconclusive: 35.5 µM [inhibitor, single point]",–
Cc1cc(C)cc(-n2c(SCC(=O)Nc3cccc(S(=O)(=O)NC4=NCCCCC4)c3)nc3ccccc3c2=O)c1,"inconclusive: 5.62 µM [inhibitor, single point]",–
Cc1cccc(NC(=S)N=Nc2c(O)n(CN3CCOCC3)c3ccccc23)c1C,"inconclusive: 8.91 µM [inhibitor, partial curve]",–
CCCCC(=O)Nc1ccc(C(=O)Nc2nc(CC(=O)OCC)cs2)cc1,"inconclusive: 0.562 µM [inhibitor, full curve, poor fit]",–
O=C1CN(C(=O)COC(=O)c2ccc[n+]([O-])c2)c2ccccc2N1,inactive,–

# Given as tab-separated lines: 3 of the compounds above
SMILES	Potency	activity change, negative = inhibition
CCCC1=C(C(=O)OCC)C(c2cc(Cl)cc(OC)c2OCc2ccccc2)NC(=O)N1 (centres undefined)	inconclusive: 15.8 µM [inhibitor, single point]	–
N#CCCN(Cc1ccccc1)C(=S)Nc1ccc(F)cc1	–	inactive: 0.301% [at 9.22 µM]
Cc1nonc1NC(=O)CSc1nc(C2CCCCC2)nc2ccccc12	inconclusive: 3.55 µM [inhibitor, partial curve]	–

# Further results follow:

SMILES,Potency,"activity change, negative = inhibition"
CN(C)c1nc(N(C)C)nc(N(C#N)CN2C(=O)c3ccccc3S2(=O)=O)n1,inactive,–
O=C1CC[C@@H](CN(Cc2ccccn2)Cc2nc(-c3ccc(C(F)(F)F)cc3)no2)N1,–,inactive: -12.6% [at 9.22 µM]
O=C(/C=C/c1ccccc1Cl)c1ccccc(=O)c1O,"inconclusive: 2.82 µM [inhibitor, full curve]",–
CC(C)Cn1c(N)c(C(=O)COC(=O)c2c(F)cccc2F)c(=O)n(C)c1=O,inactive,–
O=C(COc1ccccc1Cl)N1CCN(c2ccc(F)cc2)CC1,"inconclusive: 0.158 µM [activator, partial curve, poor fit]",–
CCOCC(=O)Nc1nc2ccc(S(C)(=O)=O)cc2s1,inactive,–
COc1cc(N)cc(NC(=O)c2ccncc2)c1,inactive,–
COC(=O)c1ccc(CSc2nnc(Nc3ccccc3OC)s2)o1,inactive,–
COc1cc(/C=N/O)cc(Br)c1OS(=O)(=O)c1ccc(C)cc1,"inconclusive: 11.2 µM [inhibitor, single point]",–
COc1ccc(/C=N\NC(=O)c2sc(N)nc2C)cc1OC,"inconclusive: 35.5 µM [activator, partial curve]",–
O=C(Nc1nnc(-c2ccco2)s1)c1ccccc1,inactive,–
COc1cc(CCC(=O)OCC(=O)Nc2ccccc2C(C)C)cc(OC)c1OC,inactive,–
O=C(Nc1ccc(Cl)cc1C(=O)Nc1ccc(Br)cn1)c1ccco1,"inconclusive: 35.5 µM [inhibitor, single point]",–
COc1ccc(-c2cc(=O)oc3c(C)c(O)c(CN(C)C)cc23)cc1,"inconclusive: 35.5 µM [inhibitor, partial curve]",–
C=C(C)COc1ccc2c3c(c(=O)oc2c1OCC(=C)C)CCC3,"inconclusive: 35.5 µM [inhibitor, single point]",–
CCOc1ccc(Nc2nc(NCC3CCCO3)c3ccccc3n2)cc1 (centres undefined),active: 14.1 µM,–
Cc1noc2ncnc(Oc3cc(Cl)ccc3Cl)c12,"inconclusive: 15.8 µM [activator, partial curve]",–
N=C1S/C(=C\c2ccccc2F)C(=O)N1c1ccc(F)cc1,inactive,–
Cc1cc(NC(=O)/C=C/C(=O)N(CC(=O)NC2CCCC2)c2cccc3ccccc23)no1,"inconclusive: 35.5 µM [inhibitor, single point]",–
O=C(CCN1C(=O)/C(=C/c2cccc(Br)c2)SC1=S)NNC(=O)c1cccnc1,inactive,–
c1ccc(-c2nnc3n2CCCC3)cc1,inactive,–
COc1cc2ncnc(NCc3ccc(C)cc3)c2cc1OC,active: 35.5 µM,–
COc1ccc(C2CC(c3ccc(OC)cc3)n3nc(NS(C)(=O)=O)nc3N2)cc1 (centres undefined),–,inactive: 16% [at 9.22 µM]
CSc1ncc2c(n1)-c1cc(C)ccc1SC2,"inconclusive: 35.5 µM [inhibitor, single point]",–
CC(=O)/C(=N/Nc1ccccc1Cl)Sc1nnc(C(O)c2ccccc2)n1-c1ccccc1 (centres undefined),inactive,–

SMILES,Potency,"activity change, negative = inhibition"
Cc1sc2cc3c(c(C(=O)c4ccccc4)[n+]2c1C)-c1cccc2cccc-3c12,active: 8.91 µM,–
CC(=O)N/N=C/c1c(C)[nH]n(-c2ccccc2)c1=O,"inconclusive: 11.2 µM [inhibitor, partial curve]",–
CN(C)S(=O)(=O)c1ccc(S(=O)(=O)Nc2ccc3c(c2)oc2ccccc23)cc1,"inconclusive: 10 µM [inhibitor, partial curve]",–
O=C(Nc1nc(SCc2ccc(F)cc2)ns1)c1ccco1,"inconclusive: 35.5 µM [inhibitor, single point]",–
Cn1nc([N+](=O)[O-])nc1Sc1nnc(-c2ccccc2)o1,"inconclusive: 35.5 µM [inhibitor, single point]",–
NC(=O)CN1CCOCCOCCOCCOCCOCC1,inactive,–
Cc1nc(OCC(=O)c2ccc(Cl)cc2)c(C#N)c2c1COC(C)(C)C2,"inconclusive: 11.2 µM [inhibitor, partial curve]",–
CCC(C)(C)NC(=O)c1ccc(S(=O)(=O)N2CCCCCC2)cc1,"inconclusive: 0.562 µM [activator, full curve, poor fit]",–
CCN(CC)C(=O)/C(NC(=O)c1ccccc1)=C(/Sc1ncccn1)c1ccccc1,"inconclusive: 11.2 µM [activator, partial curve]",–
Cc1cc(NC(=O)c2c(F)cccc2Cl)n(-c2nc3ccccc3[nH]2)n1,"inconclusive: 35.5 µM [inhibitor, single point]",–
C/C(=C\c1ccco1)C1C(C#N)=C(N)OC2=C1C(=O)CC(C)(C)C2 (centres undefined),inactive,–
CCc1[nH]c(=O)[nH]c1C(C)S(=O)(=O)c1ccc(C)cc1 (centres undefined),"inconclusive: 31.6 µM [inhibitor, partial curve]",–
O=C(O)CN1CCCCCC1=O,inactive,–
CC1(C)CC(=O)C(C(c2ccc(F)cc2)C2C(=O)CC(C)(C)CC2=O)C(=O)C1,inactive,–
COC(=O)c1ccc(NC(=O)CSc2ccccn2)cc1,inactive,–
CCc1ccc(NC(=O)c2cnn(-c3ccccc3)c2C2CCNCC2)cc1,"inconclusive: 2.82 µM [activator, single point]",–
Cc1ccc(C(=O)N2CCN(c3ccc(C(F)(F)F)cn3)CC2)c(C)c1,"inconclusive: 35.5 µM [inhibitor, single point]",–
COc1cc(OC)cc(C(=O)NCCN2C(=O)S/C(=C\c3cccs3)C2=O)c1,"inconclusive: 14.1 µM [inhibitor, single point]",–
CCOC(=O)/C(C#N)=C/c1ccc(OC(=O)c2ccco2)c(OCC)c1,active: 8.91 µM,–
Cc1cc(C2C(C#N)=C(N)Oc3n[nH]c(C)c32)c(C)s1 (centres undefined),"inconclusive: 35.5 µM [inhibitor, single point]",–
CC(c1ccccc1)n1cc(C(=O)NCC2CCCO2)nn1 (centres undefined),inactive,–
CCn1nc(C)c(NC(=O)CSc2nnc(-c3ccco3)n2C)c1C,inactive,–
COc1cccc(/C=N/NC(=O)c2cc3c(OC)cccc3[nH]2)c1O,active: 2.24 µM,–
Cc1ccc(-n2cccn2)cc1,–,inactive: 15.3% [at 9.22 µM]
